Values joined by “and” are separate entries in the source; they are usually repeats but may differ in a detail not shown here. Equal values may be shown once. “Also recorded” adds a separate entry of the source. At least one peptide structure holds a part that was inferred or is arguable (an end, a ring closure or a residue). *1 amine or outer side, *2 acyl side, *3 side chain or, on linkers, in order; H or OH if unused. Where a SMILES comes first, the peptide text is derived from it. Bridges are numbered along the chain shown (N, C = ends). [ ]: non-standard residue; d: D form. Phe(Nα-CH2CH2CO) = O=C([C@H](Cc1ccccc1)N(CCC(=O)[*:3])[*:1])[*:2]; N(2-aminoethyl)Phe = O=C([C@H](Cc1ccccc1)N(CCN[*:3])[*:1])[*:2]; N(CH2CH2CO)Gly = O=C(CN(CCC(=O)[*:3])[*:1])[*:2]; 2Nal = N[C@@H](Cc1ccc2ccccc2c1)C(=O)O
Columns and labels:
[1] = system: somatostatin receptors (SSTR-1, 2, 3, 4 or 5); experiment: Somatostatin receptor subtype selectivity of binding; parameters: species or system human; conditions: in words
Method: The somatostatin analogs were tested for their potency in inhibition of the binding of ^125I-Tyr^11-SRIF (based on the method described by Raynor et. al., Molecular Pharmacology, 1993, 43, 838-844) to membrane preparations expressing the transmembranal somatostatin receptors (SSTR-1, 2, 3, 4 or 5). The receptor preparations used for these tests were either from the cloned human receptors selectively and stably expressed in Chinese Hamster Ovary (CHO) cells or from cell lines naturally expressing the SSTRs. Typically, cell membranes were homogenated in Tris buffer in the presence of protease inhibitors and incubated for 30-40 minutes with ^125I-Tyr^11-SRIF with different concentrations of the tested sample. The binding reactions were filtered, the filters were washed and the bound radioactivity was counted in gamma counter. Non specific binding was defined as the radioactivity remaining bound in the presence of 1 μM unlabeled SRIF-14.
In order to validate positive signals of the binding tests, and to eliminate non-specific signals, samples of irrelevant peptides, such as GnRH, that were synthesized and handled using the same procedures, were tested in the same assays as negative control samples. These samples had no binding activity in any of the assays. Results are shown below in Tables 5 and 6 and FIG. 1.

glucagon release = experiment: In-vivo effect on glucagon release; parameters: species or system Wistar male rats
Method: In-vivo determination of the release of glucogon as a result of peptide administration was measured in Wistar male rats.
Time course profiles for glucagon release under constant experimental conditions were measured.
Male Wistar rats were fasted overnight. Animals were anesthetized with Nembutal (IP, 60 mg/kg). Ten minutes after anesthesia, drugs were administrated S.C. at 0.01-100 microgram/kg dose. Stimulation of glucagon secretion was performed by I.V. administration of L-arginine, 0.5 g/kg, 5 minutes before blood collection from portal vein. Hormone concentration was measured by RIA.

insulin release = experiment: In-vivo effect on insulin release; parameters: species or system Wistar male rats; conditions: for effect on insulin release: 100 micrograms per kilogram, D-glucose stimulation, FIG. 5a
Method: Insulin stimulation was induced by IV bolus administration of D-glucose to overnight fasted rats.
An in-vivo determination of insulin release as a result of peptide administration was measured in Wistar male rats. […] Time course profiles for […] release under constant experimental conditions were measured.
Male Wistar rats were fasted overnight. Animals were anesthetized with Nembutal (IP, 60 mg/kg). Ten minutes after anesthesia, drugs were administrated S.C. at 0.01-100 microgram/kg dose 30 minutes before stimulation of insulin secretion performed by I.V. administration of 0.5 g/kg of D-glucose, 5 minutes before blood collection from abdominal Vena-cava. Hormone levels wer measured by RIA.

[2] = system: growth hormone (GH) release; experiment: In-vivo inhibition of growth hormone release; parameters: species or system Wistar male rats; conditions: for effect on growth hormone release: 100 micrograms per kilogram, L-arginine stimulation, Nembutal anesthesia, FIG. 3
Method: Inhibition of growth hormone (GH) release as a result of peptide administration was measured in Wistar male rats.
Adult male Wistar rats weighing 200-250 g, were maintained on a constant light-dark cycle (light from 8:00 to 20:00 h), temperature (21±3° C.), and relative humidity (55±10%). Laboratory chow and tap water were available ad libitum. On the day of the experiment, rats were anesthetized with Nembutal (IP, 60 mg/kg). Ten minutes after anesthesia, drugs were administered S.C. at 0.01-100 microgram/kg dose. Stimulation of GH was performed by I.V. administration of 0.5 g/kg of L-Arginine through femoral vein. Sampling was carried out following 5 minutes of stimulation, at 15 or 30 minutes after peptide administration. Blood samples were collected form abdominal vena-cava into tubes containing heparin (15 units per ml of blood) and centrifuged immediately. Plasma was separated and kept frozen at −20° C. until assayed. Rat growth hormone (rGH) [^125I] levels were determined by means of a radioimmunoassay kit (Amersham). The standard in this kit has been calibrated against a reference standard preparation (NIH-RP2) obtained from the National Institute of Diabetes and Digestive and Kidney Diseases. All samples were measured in duplicate.

## NCCCC[C@@H]1NC(=O)[C@@H](Cc2c[nH]c3ccccc23)NC(=O)[C@H](Cc2ccccc2)NC(=O)[C@H](Cc2ccccc2)NC(=O)[C@H](Cc2ccccc2)NCC(=O)NCCN([C@@H](Cc2ccccc2)C(N)=O)C1=O [PTR 3113, Phe(C1)-Phe-Phe-(D)Trp-Lys-Phe(N2)-X]
[1]
  somatostatin receptor subtype selectivity: selective for the type 3 somatostatin receptor

## NCCCC[C@H]1NC(=O)[C@@H](Cc2c[nH]c3ccccc23)NC(=O)[C@H](Cc2ccccc2)NC(=O)[C@H](Cc2ccccc2)NC(=O)[C@H](Cc2ccccc2)NCC(=O)NCCN([C@@H](Cc2ccccc2)C(N)=O)C1=O [PTR 3123, Phe(C1)-Phe-Phe-(D)Trp-(D)Lys-Phe(N2)-X]
Glucagon release; group average, Table 11
  Plasma glucagon concentration, Average: 53.5 ng/mL
Glucagon release; in words, no dose stated
  effect on glucagon (general statement): inhibits only the release of glucagon secretion
Glucagon release; individual values, Table 11
  Plasma glucagon concentration: 20 ng/ml (2×) and 58 ng/ml and 52 ng/ml and 84 ng/ml and 87 ng/ml
[1]
  somatostatin receptor subtype selectivity: selective for the type 3 somatostatin receptor
[1]; listed as 3123
  somatostatin receptor subtype selectivity: improved selectivity of binding to the SST receptor subtype SSTR3 rather than SSTR5
Insulin release; group average, Table 12
  Plasma insulin concentration, Average: 2.85 ng/mL
Insulin release; in words, no dose stated
  effect on insulin (general statement): but not growth hormone or insulin
Insulin release; individual values, Table 12
  Plasma insulin concentration: 2.8 ng/mL and 1.46 ng/mL and 5.66 ng/mL and 2.44 ng/mL and 1.87 ng/mL
[2]; group average, Table 10
  Plasma growth hormone concentration, Average: 8.96 ng/mL
[2]; in words, no dose stated
  effect on growth hormone (general statement): but not growth hormone or insulin
[2]; individual values, Table 10
  Plasma growth hormone concentration: 10 ng/ml (4×) and 6.37 ng/ml and 7.4 ng/ml

## NCCCC[C@H]1NC(=O)[C@@H](Cc2c[nH]c3ccccc23)NC(=O)[C@H](Cc2ccccc2)NC(=O)[C@H](Cc2ccccc2)NC(=O)[C@H](Cc2ccccc2)NC(=O)CCN([C@@H](Cc2ccccc2)C(N)=O)C1=O [PTR 3171, Phe*-Phe-Phe-(D)Trp-(D)Lys-Phe(C2)-X] (FFF[dW][dK][Phe(Nα-CH2CH2CO)]-NH2; lactam N-6)
[1]
  somatostatin receptor subtype selectivity: improved selectivity of binding to the SST receptor subtype SSTR3 rather than SSTR5

## NCCCC[C@@H]1NC(=O)[C@@H](Cc2c[nH]c3ccccc23)NC(=O)[C@H](Cc2ccc(O)cc2)NC(=O)[C@H](Cc2ccccc2)NCCNC(=O)CCN(CC(N)=O)C(=O)[C@H](Cc2ccc3ccccc3c2)NC(=O)[C@H](CO)NC1=O [PTR 3201, Phe(N2)-Tyr-(D)Trp-Lys-Ser-2Nal-Gly(C2)-X] (H-[N(2-aminoethyl)Phe]Y[dW]KS[2Nal][N(CH2CH2CO)Gly]-NH2; lactam 1-7; N-terminus and C-terminus assumed)
[1]
  somatostatin receptor subtype selectivity: selective to somatostatin receptor 5
[1]; listed as 3201
  somatostatin receptor subtype selectivity: selective for the type 5 somatostatin receptor
[1]; listed as PTR-3201
  somatostatin receptor subtype selectivity: SST-R5
Insulin release
  effect on insulin release: inactive on insulin
[2]
  effect on growth hormone release: did not affect growth hormone release

## C[C@@H](O)[C@@H]1NC(=O)[C@H](CCCCN)NC(=O)[C@@H](Cc2c[nH]c3ccccc23)NC(=O)[C@H](Cc2ccccc2)NC(=O)[C@H](Cc2ccccc2)NCCNC(=O)CCN(CC(N)=O)C(=O)[C@H](Cc2ccc3ccccc3c2)NC1=O [PTR 3203, Phe(N2)-Phe-(D)Trp-Lys-Thr-2Nal-Gly(C2)-X] (H-[N(2-aminoethyl)Phe]F[dW]KT[2Nal][N(CH2CH2CO)Gly]-NH2; lactam 1-7; N-terminus and C-terminus assumed)
[1]
  somatostatin receptor subtype selectivity: selective for receptors 3 and 5

## C[C@@H](O)[C@@H]1NC(=O)[C@H](CCCCN)NC(=O)[C@@H](Cc2c[nH]c3ccccc23)NC(=O)[C@H](Cc2ccccc2)NC(=O)[C@@H]2CSSC[C@H](NC1=O)C(=O)N([C@@H](Cc1ccccc1)C(N)=O)CCCNC(=O)CCCN[C@@H](Cc1ccccc1)C(=O)N2 [PTR 3205, Phe(C3)-Cys*-Phe-(D)Trp-Lys-Thr-Cys*-Phe(N3)-X]
[1]
  somatostatin receptor subtype selectivity: selective to somatostatin receptor type 2; also recorded: selective for somatostatin receptor 2
[1]; listed as PTR-3205
  somatostatin receptor subtype selectivity: SST-R2
Insulin release
  effect on insulin release: active inhibitors of insulin release
[2]
  effect on growth hormone release: equipotent inhibitors of growth hormone release in comparison to Octreotide

Reference: patent publication US6930088B2, “Conformationally constrained backbone cyclized somatostatin analogs” (Peptor Ltd., priority 1998, dated 2005)
